Results are given in words; binding and its absence hold for the method and conditions named. For some assays here: In cells and extracts the contact can be indirect. Some entries that bind do so weakly or less than the wild type. Where a sequence is shown, tags or fusion partners need not be part of it.
Columns and labels:
[1] = target: T1, GATD3A:FLAG (glutamine amidotransferase-like class 1 domain-containing protein 3A, mouse, FLAG knock-in) (mouse) (UniProt Q9D172); assay: co-IP; FLAG immunoprecipitation from Gatd3a^FLAG/FLAG mouse heart mitochondria, EFTu and ATP5A found in the eluate (Fig. 4B)
T1 sequence: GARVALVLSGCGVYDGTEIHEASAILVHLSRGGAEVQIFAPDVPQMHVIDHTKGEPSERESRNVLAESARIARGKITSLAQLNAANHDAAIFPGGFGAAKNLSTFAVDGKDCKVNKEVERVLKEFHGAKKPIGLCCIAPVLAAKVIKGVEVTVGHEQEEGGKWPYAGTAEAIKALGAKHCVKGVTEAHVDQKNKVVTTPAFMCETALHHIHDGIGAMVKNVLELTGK

Amino acid sequences for entries named in this document (tags omitted). Residues count along the entry.
UniProt Q03265, residues 44-553: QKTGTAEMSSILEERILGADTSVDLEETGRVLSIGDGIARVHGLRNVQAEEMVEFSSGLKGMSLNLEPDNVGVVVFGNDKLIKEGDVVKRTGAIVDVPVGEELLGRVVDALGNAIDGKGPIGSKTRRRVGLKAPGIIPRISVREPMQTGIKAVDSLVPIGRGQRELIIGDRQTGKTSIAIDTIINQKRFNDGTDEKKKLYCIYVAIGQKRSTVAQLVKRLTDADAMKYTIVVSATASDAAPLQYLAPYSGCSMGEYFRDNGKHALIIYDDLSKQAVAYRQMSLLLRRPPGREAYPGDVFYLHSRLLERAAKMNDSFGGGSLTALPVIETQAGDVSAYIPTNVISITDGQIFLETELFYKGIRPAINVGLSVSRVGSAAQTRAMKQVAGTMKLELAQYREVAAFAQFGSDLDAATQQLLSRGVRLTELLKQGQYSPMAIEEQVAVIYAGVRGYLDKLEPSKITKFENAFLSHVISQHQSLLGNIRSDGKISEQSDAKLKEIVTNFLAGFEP
UniProt P0CE47: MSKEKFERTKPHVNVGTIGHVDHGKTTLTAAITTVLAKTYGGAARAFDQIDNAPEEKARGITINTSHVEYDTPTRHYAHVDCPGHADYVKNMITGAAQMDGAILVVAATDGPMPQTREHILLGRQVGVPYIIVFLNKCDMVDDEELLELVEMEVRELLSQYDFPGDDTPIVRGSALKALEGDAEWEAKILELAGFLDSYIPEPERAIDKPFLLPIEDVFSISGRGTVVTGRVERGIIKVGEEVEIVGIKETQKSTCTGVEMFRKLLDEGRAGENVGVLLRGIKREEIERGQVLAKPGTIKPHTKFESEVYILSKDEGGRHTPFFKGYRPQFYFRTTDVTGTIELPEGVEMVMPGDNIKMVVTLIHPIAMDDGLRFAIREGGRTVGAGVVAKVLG

[2] = target: T2, recombinant human GATD3A:6X-His (mitochondrial localization signal removed) (human) (UniProt P0DPI2); assay: co-elution in His-tag affinity chromatography (FPLC); lysate of E. coli BL21 DE3 expressing GATD3A:6X-His on a HisTrap HP column, wash 10 mM imidazole, elution over a 10-100 mM imidazole gradient; Coomassie gel, band identified by mass spectrometry
T2 sequence: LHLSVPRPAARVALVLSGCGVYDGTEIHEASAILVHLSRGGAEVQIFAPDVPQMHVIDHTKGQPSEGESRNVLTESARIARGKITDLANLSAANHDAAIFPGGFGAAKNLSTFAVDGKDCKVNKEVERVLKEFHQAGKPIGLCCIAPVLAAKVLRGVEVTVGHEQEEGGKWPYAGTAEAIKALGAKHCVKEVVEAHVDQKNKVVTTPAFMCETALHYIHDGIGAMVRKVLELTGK

| binding [1] | binding [2] | Substance |
| --- | --- | --- |
| binds | – | ATP synthase subunit alpha, mitochondrial (from UniProt Q03265 44-553) |
| – | binds | bacterial elongation factor EFTu (E. coli) (from UniProt P0CE47 1-394) |
